# According to the supplement of paper PMC11150407:
# In all, about 3,000 compounds went through this assay and about 45 (2%) showed an effect of 50% or more. The list shows a part of the results.
# System: MOLM1 and UCSD/AML1 (averaged)
# Assay: cell viability relative to DMSO control (POC); higher = less growth inhibition
# Conditions: 1 µM; 72 h
# Protocol: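 Primary viability screen in the 3q26 EVI1-high AML cell lines MOLM1 and UCSD/AML1, compounds at 1 uM for 72 h. ATP CellTiter-Glo read-out given as percent viable over DMSO control (POC), averaged over duplicates. This mapping covers the TimTec NDL-3000 natural derivative library, whose compounds are identified by TimTec catalogue codes (ST...).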
row,Compound,cell viability [%]
1,O=C1CCCC2=C1C(c1ccc(-c3cccc(C(F)(F)F)c3)o1)c1c([nH]c(=O)[nH]c1=O)N2 (stereo unspecified),86.2
2,COc1ccc2[nH]cc(CCNS(=O)(=O)c3ccccc3)c2c1,110
3,CCOc1ccc(CSc2nc3c(=O)[nH]c(C)nc3n2C)cc1-n1nc2ccccc2n1,100
4,COc1ccc(NC(=S)NC(=O)/C=C/c2cc(OC)c(OC)c(OC)c2)cc1,100
5,COc1ccc(CCNC(=O)Cn2c(C(C)=O)nc3ccccc32)cc1OC,97
6,O=C(Nc1nccs1)c1ccc2c(c1)OCO2,99.1
7,COc1ccc(-c2oc3ccccc3c(=O)c2OC)cc1OC,90.1
8,O=C(Oc1cccc(/C=N/NC(=O)C(O)(c2ccccc2)c2ccccc2)c1)c1ccc2c(c1)OCO2,105
9,COc1ccc2oc(=O)c(-c3ccc(F)cc3)cc2c1,104
10,CCCCc1c(O)c2ccccc2n(Cc2ccccc2)c1=O,96.9
11,Cc1cccc(C)c1OCCN=Cc1c(O)c(O)c(C(C)C)c2cc(C)c(-c3c(C)cc4c(C(C)C)c(O)c(O)c(C=NCCOc5c(C)cccc5C)c4c3O)c(O)c12,87.5
12,COC(=O)/C(=C\C(=O)c1ccccc1)Nc1ccc(I)cc1,98.8
13,COc1ccccc1NC(=O)NCCc1c[nH]c2ccccc12,100
14,CN1CCC(OC(=O)c2cc3cc([N+](=O)[O-])ccc3oc2=O)CC1,101
15,COc1cc(CNS(=O)(=O)c2ccc(CN3C(=O)c4ccccc4C3=O)cc2)cc(OC)c1OC,94.3
16,O=C(Oc1ccc2oc(-c3ccccc3)cc(=O)c2c1)c1cccs1,104
17,CCOC(=O)CNC(=O)c1cc(Cl)ccc1Cl,99.5
18,Nc1nc(N)c2nccnc2n1,114
19,CCn1c(N/N=C/c2ccccc2Cl)nc2c1c(=O)[nH]c(=O)n2C,101
20,COc1cc2c(cc1OC)CC(=O)NC2,89.9
21,COc1cc(CCC(=O)Nc2nnc(C(C)(C)C)s2)cc(OC)c1OC,97.9
22,O=c1oc2ccc(Cl)cc2cc1-c1nc2ccccc2s1,101
23,O=C(Cc1n[nH]c(=O)[nH]c1=O)N/N=C/c1cccc([N+](=O)[O-])c1,97.7
24,O=C(Cn1cc(I)cn1)N1CCc2ccccc2C1,103
25,CCOC(=O)c1ccc2[nH]c(=O)c(CC)c(O)c2c1,91.7
26,COc1cc(CC(=O)O)ccc1OC(C)=O,101

row,Compound,cell viability [%]
1,COc1cc(C(=O)Nc2ccc3ncn(C)c3c2)cc(OC)c1OC,93.9
2,COc1cc(C2NC(=O)NC(C)=C2C(=O)OCC(F)(F)F)ccc1O (stereo unspecified),104
3,COCCOC(=O)c1c(C)n(CCOc2ccc(C)cc2)c2c1cc(O)c1ccccc12,96.7
4,CSc1nc2[nH]c(=O)[nH]c2c(=O)[nH]1,101
5,NC(=O)COc1ccc2oc(-c3ccccc3)cc(=O)c2c1,116
6,C/C=C/c1ccc(OCC(=O)OC)c(OC)c1,105
7,CCCNC(=O)c1cc(=O)n(CC(=O)Nc2c(C)cc(C)cc2C)c2ccccc12,94.1
8,CC(=O)OCC1OC(OCCN=[N+]=[N-])C(OC(C)=O)C(OC(C)=O)C1OC(C)=O (stereo unspecified),101
9,COc1cc(/C=C(\C#N)c2ccc(Cl)cc2)ccc1OC(=O)C1COc2ccccc2O1 (stereo unspecified),99.3
10,COc1ccccc1NC(=O)c1ccc2c(c1)OCO2,94.7
11,CCN(CC)c1ccc(C2C3CCCCC3(O)CCN2C(=O)/C=C/c2ccc3c(c2)OCO3)cc1 (stereo unspecified),109
12,CCOC(=O)C1=C(N)Oc2c(oc(CO)cc2=O)C1c1c(Cl)cccc1Cl (stereo unspecified),106
13,Cc1ccc(NC(=O)CSc2nc3c(=O)[nH]cnc3n2C)cc1F,91.5
14,CCOC(=O)c1c(C)n(CCSCC)c2c1cc(O)c1ccccc12,99.6
15,Cc1cc2c(c(O)c1-c1c(C)cc3c(c1O)/C(=C/Nc1ccc(S(=O)(=O)NC(=N)N)cc1)C(=O)C(O)=C3C(C)C)/C(=C/Nc1ccc(S(=O)(=O)NC(=N)N)cc1)C(=O)C(O)=C2C(C)C,98.5
16,O=C(COc1ccc(Cl)cc1Cl)OCC1CCCN2CCCCC12 (stereo unspecified),104
17,O=C(Cn1c(=O)cc(C(=O)N2CCCC2)c2ccccc21)Nc1cccc(Br)c1,105
18,Cc1ccc2[nH]c(=O)cc(CSc3nc4cc(C(F)(F)F)ccc4n3C3CC3)c2c1,89
19,COc1cccc(NC(=O)CSc2nc3c(=O)[nH]cnc3n2C)c1,106
20,COc1ccc(CNC(=O)CSc2nc3ccccc3c(=O)[nH]2)cc1,109
21,Cc1oc(C)c(C(=O)NC(Cc2ccccc2)C(=O)O)c1C(=O)NC(Cc1ccccc1)C(=O)O (stereo unspecified),99
22,COc1cc(C(=O)Nc2ccc(-c3ccc([N+](=O)[O-])cc3)cc2)c(Br)c(OC)c1OC,105
23,COc1ccc(C(NC(=O)CC(NOC(=O)CC2c3ccccc3-c3ccccc32)C(=O)O)c2ccc(OC)cc2)cc1 (stereo unspecified),100
24,COc1cc(C(=O)CC2OC(=O)c3c2ccc(OC)c3OC)ccc1O (stereo unspecified),99.2
25,N#Cc1nc2ccccc2n1CC(=O)N1CCc2ccccc2C1,94.8
26,CCOc1cc(C2C(C(=O)OC(C)CC)=C(C)NC3=C2C(=O)CC(c2ccc(OC)cc2)C3)cc(Br)c1O (stereo unspecified),87.3

row,Compound,cell viability [%]
1,COc1cc(C=O)cc(I)c1O,91.6
2,COc1cc(OC)cc(C(=O)N2CCCc3cccc(OCCNC(C)=O)c32)c1,97.3
3,O=C(O)c1ccc(NCCC(=O)c2ccc3c(c2)OCO3)cc1,97.4
4,Cc1ccc(C(=O)NC(=O)CSc2nccc(=O)[nH]2)cc1,108
5,COc1ccc(C=O)c(OC)c1OC,96
6,Cc1ccc(C(=O)COc2cc3c(C)cc(=O)oc3cc2Cl)cc1,98.6
7,COc1c2c(c([N+](=O)[O-])c(OC)c1OC)C(=O)OC2,95.1
8,O=C(CNc1n[nH]c(=O)[nH]c1=O)N/N=C/c1ccc(C(F)(F)F)cc1,93.5
9,Cc1ccc(NC(=O)CSc2nc3c(=O)[nH]cnc3n2CC2CCCO2)c(Cl)c1 (stereo unspecified),98.7
10,COc1cc(C2C(C#N)=C(N)Oc3n[nH]c(C(C)(C)C)c32)ccc1O (stereo unspecified),118
11,CC(C)CC1(NC(=O)c2ccccc2)COCOC1=O (stereo unspecified),95.3
12,COc1ccccc1CCNC(=O)Cc1c(C)c2cc3c(C)coc3c(C)c2oc1=O,103
13,Cc1[nH]c2c(Cl)ccc(Cl)c2c1CCNC(=O)Cn1nc(-c2ccc(Cl)cc2)c2ccccc2c1=O,98.8
14,COc1ccc(C(=O)Nc2cc3c(cc2C)OCO3)cc1OC,96.5
15,Cc1ccc(NC(=O)C(Cc2c[nH]c3ccccc23)NC(=O)Oc2ccccc2)cc1 (stereo unspecified),93.2
16,COc1ccc2c(c1)c(CC(=O)Nc1ccc3c(c1)OCCO3)c(C)n2C(=O)c1ccc(Cl)cc1,89
17,Cc1ccc(OCCSc2nc3ncnc(N)c3[nH]2)cc1,114
18,CC(=O)OC1CCC2(C)C(CCC3(C)C2C(=O)C=C2C4CC(C)(C(=O)Nc5ccc(N=Nc6ccccc6)cc5)CCC4(C)CCC23C)C1(C)C (stereo unspecified),100
19,COCCOC(=O)c1c(C)n(CCNc2ccc([N+](=O)[O-])cc2)c2c1cc(O)c1ccccc12,102
20,Nc1ccc2oc(=O)ccc2c1,99.2
21,COc1cc(C(=O)CCNc2ccc(F)cc2)cc(OC)c1OC,78.3
22,Cc1ccc(-n2c(SCc3cn4ccccc4n3)nc3c(=O)[nH]cnc32)cc1,98.3
23,Cc1nn(-c2ccccc2)c(C)c1/C=C/C(=O)c1ccc2c(c1)OCO2,95.8
24,Cc1[nH]c(=O)[nH]c(=O)c1S(=O)(=O)Nc1cccc(C(=O)O)c1,99.6
25,N#CC1=C(N)Oc2c(oc(CO)cc2=O)C1c1cccc(Cl)c1 (stereo unspecified),104
26,COc1cc(-c2nnc(SCc3csc(-c4ccc(C)cc4)n3)o2)cc(OC)c1OC,92.1

# 22 successive compounds out of the list so far:
row,Compound,cell viability [%]
4,Cc1ccc(C(=O)NC(=O)CSc2nccc(=O)[nH]2)cc1,108
5,COc1ccc(C=O)c(OC)c1OC,96
6,Cc1ccc(C(=O)COc2cc3c(C)cc(=O)oc3cc2Cl)cc1,98.6
7,COc1c2c(c([N+](=O)[O-])c(OC)c1OC)C(=O)OC2,95.1
8,O=C(CNc1n[nH]c(=O)[nH]c1=O)N/N=C/c1ccc(C(F)(F)F)cc1,93.5
9,Cc1ccc(NC(=O)CSc2nc3c(=O)[nH]cnc3n2CC2CCCO2)c(Cl)c1 (stereo unspecified),98.7
10,COc1cc(C2C(C#N)=C(N)Oc3n[nH]c(C(C)(C)C)c32)ccc1O (stereo unspecified),118
11,CC(C)CC1(NC(=O)c2ccccc2)COCOC1=O (stereo unspecified),95.3
12,COc1ccccc1CCNC(=O)Cc1c(C)c2cc3c(C)coc3c(C)c2oc1=O,103
13,Cc1[nH]c2c(Cl)ccc(Cl)c2c1CCNC(=O)Cn1nc(-c2ccc(Cl)cc2)c2ccccc2c1=O,98.8
14,COc1ccc(C(=O)Nc2cc3c(cc2C)OCO3)cc1OC,96.5
15,Cc1ccc(NC(=O)C(Cc2c[nH]c3ccccc23)NC(=O)Oc2ccccc2)cc1 (stereo unspecified),93.2
16,COc1ccc2c(c1)c(CC(=O)Nc1ccc3c(c1)OCCO3)c(C)n2C(=O)c1ccc(Cl)cc1,89
17,Cc1ccc(OCCSc2nc3ncnc(N)c3[nH]2)cc1,114
18,CC(=O)OC1CCC2(C)C(CCC3(C)C2C(=O)C=C2C4CC(C)(C(=O)Nc5ccc(N=Nc6ccccc6)cc5)CCC4(C)CCC23C)C1(C)C (stereo unspecified),100
19,COCCOC(=O)c1c(C)n(CCNc2ccc([N+](=O)[O-])cc2)c2c1cc(O)c1ccccc12,102
20,Nc1ccc2oc(=O)ccc2c1,99.2
21,COc1cc(C(=O)CCNc2ccc(F)cc2)cc(OC)c1OC,78.3
22,Cc1ccc(-n2c(SCc3cn4ccccc4n3)nc3c(=O)[nH]cnc32)cc1,98.3
23,Cc1nn(-c2ccccc2)c(C)c1/C=C/C(=O)c1ccc2c(c1)OCO2,95.8
24,Cc1[nH]c(=O)[nH]c(=O)c1S(=O)(=O)Nc1cccc(C(=O)O)c1,99.6
25,N#CC1=C(N)Oc2c(oc(CO)cc2=O)C1c1cccc(Cl)c1 (stereo unspecified),104

# (cont.)

row,Compound,cell viability [%]
1,Cc1cc(=O)n(C)c(=O)n1Cc1ccccc1C(=O)O,101
2,CCc1ccc(NC(=O)Cn2c(=O)cc(C(=O)N(C)C)c3ccccc32)cc1,101
3,CCOc1cc(C2C3=C(CC(C)(C)CC3=O)N(c3ccc(C)cc3)C3=C2C(=O)CC(C)(C)C3)ccc1O,100
4,CC(=O)O[C@]1(C(=O)CO)CCC2C3CCC4=CC(=O)CC[C@]4(C)C3[C@@H](O)C[C@@]21C (stereo partly specified),79.2
5,CCCCCCCCCCC(=O)CCCC(=O)O,72.8
6,O=C(Cn1c(=O)cc(C(=O)NCc2ccccc2)c2ccccc21)Nc1ccc2c(c1)OCO2,87.3
7,COc1ccc2nc(NC(=O)CN3CCN(C(=O)c4ccco4)CC3)sc2c1,102
8,Cc1ccc(NC(=O)CSc2nc3ccccc3c(=O)[nH]2)cc1,105
9,Cc1ccc(-n2c(SCC(=O)Nc3cccc(C)c3)nc3c(=O)[nH]cnc32)cc1,104
10,Cc1ccc2ccccc2c1CSc1nc(N)cc(=O)[nH]1,94.7
11,O=c1[nH]c2ccc(Cl)cc2c(-c2ccccc2)c1N1CCN(CCO)CC1,57
12,CCN(CC)CCN1C(=O)c2ccccc2NC1c1cc(OC)c(OC)c(OC)c1 (stereo unspecified),99.2
13,Cn1c(=O)[nH]c(=O)c2c1ncn2CC(=O)O,96.8
14,O=C(O)C1NCCc2ccccc21 (stereo unspecified),101
15,CC(CCc1ccccc1)NC(=O)CSc1nc2ccccc2c(=O)[nH]1 (stereo unspecified),102
16,Cc1cc2nc[nH]c2c(N=Cc2c(O)c(O)c(C(C)C)c3cc(C)c(-c4c(C)cc5c(C(C)C)c(O)c(O)c(C=Nc6c(C)c(C)cc7nc[nH]c67)c5c4O)c(O)c23)c1C,99.7
17,Cc1cc(C)c2c(CN3CCN(c4cc(Cl)ccc4C)CC3)cc(=O)oc2c1,105
18,COc1ccc(C2C3CCCCC3(O)CCN2C(=O)/C=C/c2ccc(OC)c(OC)c2)c(OC)c1 (stereo unspecified),113
19,COc1cc(/C=C2\SC(=Nc3ccccc3)NC2=O)ccc1O,69.8
20,C=CCNC(=O)c1c(O)c2cc(OC)c(OC)cc2n(CC=C)c1=O,85.7
21,Cn1c(=O)c2c(nc(N3CCOCC3)n2CCCNC2=NCCCC2)n(C)c1=O,102
22,COc1cc(C(C)=O)cc(OC)c1O,102
23,CC(=O)OC1CCC2(C)C(CCC3(C)C2C(=O)C=C2C4CC(C)(C(=O)OC(C)N5CCCCC5)CCC4(C)CCC23C)C1(C)C (stereo unspecified),86.9
